Measurements taken from article PMC12681554.
These are yes or no findings as the source states them, for the method shown. Binding seen in cells or lysates may run through a third protein. Some results given as binding are weak or reduced against the parent protein; the word gives no strength.

The chains behind the UniProt entries cited, without tags or fusion partners.
UniProt P09429: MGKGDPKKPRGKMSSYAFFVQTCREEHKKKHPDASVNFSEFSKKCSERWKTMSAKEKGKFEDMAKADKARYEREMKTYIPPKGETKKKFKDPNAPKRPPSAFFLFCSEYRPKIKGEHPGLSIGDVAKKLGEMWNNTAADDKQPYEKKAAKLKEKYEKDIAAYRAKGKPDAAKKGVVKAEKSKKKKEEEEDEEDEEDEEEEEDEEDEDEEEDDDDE
UniProt Q03113: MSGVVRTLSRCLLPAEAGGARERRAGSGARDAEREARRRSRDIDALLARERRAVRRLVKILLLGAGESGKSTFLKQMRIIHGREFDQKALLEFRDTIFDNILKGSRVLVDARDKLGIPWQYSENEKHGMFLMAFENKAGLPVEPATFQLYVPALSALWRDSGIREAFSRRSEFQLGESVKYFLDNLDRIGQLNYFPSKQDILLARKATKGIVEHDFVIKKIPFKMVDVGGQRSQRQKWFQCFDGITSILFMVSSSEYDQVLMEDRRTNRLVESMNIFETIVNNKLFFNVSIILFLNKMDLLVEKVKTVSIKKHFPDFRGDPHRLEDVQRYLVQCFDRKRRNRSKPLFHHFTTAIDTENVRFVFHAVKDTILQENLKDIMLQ
UniProt P04150: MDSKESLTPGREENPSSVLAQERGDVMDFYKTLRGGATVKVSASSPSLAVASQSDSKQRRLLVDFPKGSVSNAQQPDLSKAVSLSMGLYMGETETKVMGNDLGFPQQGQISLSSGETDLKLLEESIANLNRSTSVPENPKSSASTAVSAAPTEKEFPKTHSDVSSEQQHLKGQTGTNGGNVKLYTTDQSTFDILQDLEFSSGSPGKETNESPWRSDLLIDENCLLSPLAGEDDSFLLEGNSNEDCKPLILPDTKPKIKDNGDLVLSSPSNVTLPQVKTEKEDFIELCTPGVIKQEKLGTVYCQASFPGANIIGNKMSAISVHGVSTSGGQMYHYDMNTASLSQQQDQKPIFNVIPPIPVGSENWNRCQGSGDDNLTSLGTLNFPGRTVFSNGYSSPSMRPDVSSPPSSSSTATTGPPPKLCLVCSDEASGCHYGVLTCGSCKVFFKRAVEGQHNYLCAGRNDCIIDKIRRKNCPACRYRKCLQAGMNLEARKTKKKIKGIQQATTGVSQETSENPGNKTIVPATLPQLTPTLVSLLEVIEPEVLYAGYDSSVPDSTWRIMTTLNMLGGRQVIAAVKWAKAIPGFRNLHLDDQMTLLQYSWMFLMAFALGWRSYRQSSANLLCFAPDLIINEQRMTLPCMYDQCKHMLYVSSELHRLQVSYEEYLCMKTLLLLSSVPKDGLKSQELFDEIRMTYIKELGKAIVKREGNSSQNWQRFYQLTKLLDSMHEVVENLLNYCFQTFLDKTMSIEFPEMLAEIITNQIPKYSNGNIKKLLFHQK
UniProt Q9BYG3: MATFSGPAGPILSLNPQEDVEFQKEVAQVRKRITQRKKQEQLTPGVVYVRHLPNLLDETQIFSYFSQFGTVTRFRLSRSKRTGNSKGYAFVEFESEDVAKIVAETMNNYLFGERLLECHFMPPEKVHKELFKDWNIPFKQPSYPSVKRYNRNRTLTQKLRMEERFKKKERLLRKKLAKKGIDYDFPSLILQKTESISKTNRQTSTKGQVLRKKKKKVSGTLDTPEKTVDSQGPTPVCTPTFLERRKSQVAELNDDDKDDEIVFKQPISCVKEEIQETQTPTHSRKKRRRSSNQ
UniProt P04792: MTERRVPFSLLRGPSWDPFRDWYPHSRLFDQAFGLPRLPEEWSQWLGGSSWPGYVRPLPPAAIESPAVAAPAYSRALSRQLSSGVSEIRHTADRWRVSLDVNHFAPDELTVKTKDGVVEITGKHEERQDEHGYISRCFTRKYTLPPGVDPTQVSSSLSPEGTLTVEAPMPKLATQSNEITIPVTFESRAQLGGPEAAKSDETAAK

B1: CAT (protein, UniProt P04040 1-527)
chain: MADSRDPASDQMQHWKEQRAAQKADVLTTGAGNPVGDKLNVITVGPRGPLLVQDVVFTDEMAHFDRERIPERVVHAKGAGAFGYFEVTHDITKYSKAKVFEHIGKKTPIAVRFSTVAGESGSADTVRDPRGFAVKFYTEDGNWDLVGNNTPIFFIRDPILFPSFIHSQKRNPQTHLKDPDMVWDFWSLRPESLHQVSFLFSDRGIPDGHRHMNGYGSHTFKLVNANGEAVYCKFHYKTDQGIKNLSVEDAARLSQEDPDYGIRDLFNAIATGKYPSWTFYIQVMTFNQAETFPFNPFDLTKVWPHKDYPLIPVGKLVLNRNPVNYFAEVEQIAFDPSNMPPGIEASPDKMLQGRLFAYPDTHRHRLGPNYLHIPVNCPYRARVANYQRDGPMCMQDNQGGAPNYYPNSFGAPEQQPSALEHSIQYSGEVRRFNTANDDNVTQVRAFYVNVLNEEQRKRLCENIAGHLKDAQIFIQKKAVKNFTEVHPDYGSHIQALLDKYNAEKPKNAIHTFVQSGSHLAAREKANL
B2: HCLS1 (protein, UniProt P14317 1-486)
chain: MWKSVVGHDVSVSVETQGDDWDTDPDFVNDISEKEQRWGAKTIEGSGRTEHINIHQLRNKVSEEHDVLRKKEMESGPKASHGYGGRFGVERDRMDKSAVGHEYVAEVEKHSSQTDAAKGFGGKYGVERDRADKSAVGFDYKGEVEKHTSQKDYSRGFGGRYGVEKDKWDKAALGYDYKGETEKHESQRDYAKGFGGQYGIQKDRVDKSAVGFNEMEAPTTAYKKTTPIEAASSGTRGLKAKFESMAEEKRKREEEEKAQQVARRQQERKAVTKRSPEAPQPVIAMEEPAVPAPLPKKISSEAWPPVGTPPSSESEPVRTSREHPVPLLPIRQTLPEDNEEPPALPPRTLEGLQVEEEPVYEAEPEPEPEPEPEPENDYEDVEEMDRHEQEDEPEGDYEEVLEPEDSSFSSALAGSSGCPAGAGAGAVALGISAVAVYDYQGEGSDELSFDPDDVITDIEMVDEGWWRGRCHGHFGLFPANYVKLLE

Biological target: High mobility group box 1 (HMGB1), endogenous (human (endogenous in THP-1)) (UniProt P09429)
Experiment: proximity ligation; Naveniflex MR kit on fixed, permeabilised THP-1 cells, resting or LPS 100 ng/ml overnight; endogenous proteins; mouse anti-HMGB1 (2G7) with a rabbit antibody to the partner; single-antibody and irrelevant IgG controls; dots per cell

binding, binds:
GNA12 (from UniProt Q03113 1-381)
NR3C1 (glucocorticoid receptor) (from UniProt P04150 1-777)
NIFK (from UniProt Q9BYG3 1-293)
HSPB1 (from UniProt P04792 1-205)
B1
B2
